# Measurements taken from the supplement of paper PMC8728848.
# Some of the results follow.
# How the values were obtained:
# Assay in all cases: glycan array binding signal (z-score within array); higher = stronger binding
# Conditions in all cases: glycan notation: IUPAC condensed, linker removed
# [1] = target: Neu5Ac(a2-6)Gal(b1-4)GlcNAc(b1-2)Man(a1-3)[Man(a1-6)]Man(b1-4)GlcNAc(b1-4)GlcNAc
# Method in brief: (§1)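 Glycan array binding is given as a within-array Z-score, which can be read as non-binding when negative. The arrays, 3228 of them, came from the Consortium for Functional Glycomics database and were retained only where the protein sequence was available. Z-scores were averaged across arrays of the same protein sequence at different concentrations or buffers and across linkers.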
# [2] = target: Neu5Ac(a2-6)Gal(b1-4)GlcNAc(b1-2)Man(a1-3)[Neu5Ac(a2-3)Gal(b1-4)GlcNAc(b1-2)Man(a1-6)]Man(b1-4)GlcNAc(b1-4)GlcNAc
# Method in brief: as §1
# [3] = target: Neu5Ac(a2-6)Gal(b1-4)GlcNAc(b1-2)Man(a1-3)[Neu5Ac(a2-6)Gal(b1-4)GlcNAc(b1-2)Man(a1-6)]Man(b1-4)GlcNAc(b1-4)GlcNAc
# Method in brief: as §1
# [4] = target: Neu5Ac(a2-6)Gal(b1-4)GlcNAc(b1-2)Man(a1-3)[Neu5Ac(a2-6)Gal(b1-4)GlcNAc(b1-2)Man(a1-6)]Man(b1-4)GlcNAc(b1-4)[Fuc(a1-6)]GlcNAc
# Method in brief: as §1
# [5] = target: Neu5Ac(a2-6)Gal(b1-4)GlcNAc(b1-2)Man(a1-6)Man(b1-4)GlcNAc(b1-4)GlcNAc
# Method in brief: as §1
# [6] = target: Neu5Ac(a2-6)Gal(b1-4)GlcNAc(b1-2)Man(a1-6)[Gal(b1-4)GlcNAc(b1-2)Man(a1-3)]Man(b1-4)GlcNAc(b1-4)GlcNAc
# Method in brief: as §1
# [7] = target: Neu5Ac(a2-6)Gal(b1-4)GlcNAc(b1-2)Man(a1-6)[GlcNAc(b1-2)Man(a1-3)]Man(b1-4)GlcNAc(b1-4)GlcNAc
# Method in brief: as §1
# [8] = target: Neu5Ac(a2-6)Gal(b1-4)GlcNAc(b1-2)Man(a1-6)[Man(a1-3)]Man(b1-4)GlcNAc(b1-4)GlcNAc
# Method in brief: as §1
# [9] = target: Neu5Ac(a2-6)Gal(b1-4)GlcNAc(b1-2)[Neu5Ac(a2-6)Gal(b1-4)GlcNAc(b1-4)]Man(a1-3)[GlcNAc(b1-4)][Neu5Ac(a2-6)Gal(b1-4)GlcNAc(b1-2)[Neu5Ac(a2-6)Gal(b1-4)GlcNAc(b1-6)]Man(a1-6)]Man(b1-4)GlcNAc(b1-4)GlcNAc
# Method in brief: as §1
# [10] = target: Neu5Ac(a2-6)Gal(b1-4)GlcNAc(b1-2)[Neu5Ac(a2-6)Gal(b1-4)GlcNAc(b1-4)]Man(a1-3)[GlcNAc(b1-4)][Neu5Ac(a2-6)Gal(b1-4)GlcNAc(b1-4)Man(a1-6)]Man(b1-4)GlcNAc(b1-4)GlcNAc
# Method in brief: as §1
# [11] = target: Neu5Ac(a2-6)Gal(b1-4)GlcNAc(b1-2)[Neu5Ac(a2-6)Gal(b1-4)GlcNAc(b1-6)]Man(a1-6)[Neu5Ac(a2-6)Gal(b1-4)GlcNAc(b1-2)Man(a1-3)][GlcNAc(b1-4)]Man(b1-4)GlcNAc(b1-4)GlcNAc
# Method in brief: as §1
# [12] = target: Neu5Ac(a2-6)Gal(b1-4)GlcNAc(b1-3)Gal(b1-3)GlcNAc
# Method in brief: as §1
# [13] = target: Neu5Ac(a2-6)Gal(b1-4)GlcNAc(b1-3)Gal(b1-4)GlcNAc
# Method in brief: as §1
# [14] = target: Neu5Ac(a2-6)Gal(b1-4)GlcNAc(b1-3)Gal(b1-4)GlcNAc(b1-2)Man(a1-3)[Neu5Ac(a2-6)Gal(b1-4)GlcNAc(b1-3)Gal(b1-4)GlcNAc(b1-2)Man(a1-6)]GalNAc
# Method in brief: as §1
# [15] = target: Neu5Ac(a2-6)Gal(b1-4)GlcNAc(b1-3)Gal(b1-4)GlcNAc(b1-3)Gal(b1-4)GlcNAc
# Method in brief: as §1
# [16] = target: Neu5Ac(a2-6)Gal(b1-4)GlcNAc(b1-3)Gal(b1-4)GlcNAc(b1-3)Gal(b1-4)GlcNAc(b1-2)Man(a1-3)[Neu5Ac(a2-6)Gal(b1-4)GlcNAc(b1-3)Gal(b1-4)GlcNAc(b1-3)Gal(b1-4)GlcNAc(b1-2)Man(a1-6)]GalNAc
# Method in brief: as §1
# [17] = target: Neu5Ac(a2-6)Gal(b1-4)GlcNAc(b1-3)Gal(b1-4)GlcNAc(b1-3)GalNAc
# Method in brief: as §1
# [18] = target: Neu5Ac(a2-6)Gal(b1-4)GlcNAc(b1-3)Gal(b1-4)GlcNAc(b1-3)[Neu5Ac(a2-6)Gal(b1-4)GlcNAc(b1-3)Gal(b1-4)GlcNAc(b1-6)]GalNAc
# Method in brief: as §1
# [19] = target: Neu5Ac(a2-6)Gal(b1-4)GlcNAc(b1-3)Gal(b1-4)GlcNAc(b1-6)[Gal(b1-3)]GalNAc
# Method in brief: as §1
# [20] = target: Neu5Ac(a2-6)Gal(b1-4)GlcNAc(b1-3)Gal(b1-4)[Fuc(a1-3)]GlcNAc(b1-3)Gal(b1-4)[Fuc(a1-3)]GlcNAc
# Method in brief: as §1
# [21] = target: Neu5Ac(a2-6)Gal(b1-4)GlcNAc(b1-3)GalNAc
# Method in brief: as §1
# [22] = target: Neu5Ac(a2-6)Gal(b1-4)GlcNAc(b1-3)[Neu5Ac(a2-6)Gal(b1-4)GlcNAc(b1-6)]GalNAc
# Method in brief: as §1
# [23] = target: Neu5Ac(a2-6)Gal(b1-4)GlcNAc(b1-6)GalNAc
# Method in brief: as §1
# [24] = target: Neu5Ac(a2-6)Gal(b1-4)GlcNAc(b1-6)[Gal(b1-3)GlcNAc(b1-3)]Gal(b1-4)Glc
# Method in brief: as §1
# [25] = target: Neu5Ac(a2-6)Gal(b1-4)GlcNAc(b1-6)[Gal(b1-3)]GalNAc
# Method in brief: as §1
# [26] = target: Neu5Ac(a2-6)Gal(b1-4)GlcNAc6S
# Method in brief: as §1
# Neu5Ac(a2-6)GalNAc = target: Neu5Ac(a2-6)GalNAc
# Method in brief: as §1
# [27] = target: Neu5Ac(a2-6)GalNAc(b1-4)GlcNAc
# Method in brief: as §1
# [28] = target: Neu5Ac(a2-6)GalNAc(b1-4)GlcNAc6S
# Method in brief: as §1
# [29] = target: Neu5Ac(a2-6)GlcNAc(b1-4)GlcNAc
# Method in brief: as §1
# [30] = target: Neu5Ac(a2-6)GlcNAc(b1-4)GlcNAc(b1-4)GlcNAc
# Method in brief: as §1
binder,measurement,setting,value
ArathEULS3 TAP (Arabidopsis thaliana) (protein) IDENLYFQGGSMDEKTTGWRGGHVVEGLAGELEQLRARLEHHPQGQREPGGGGSLEITSLYKKAGFMEHHHQHHRHHQRDDGEDDRQSFGVPPPHVDAPPQPHGLYQSQPHFDPYAPTPQAPAPYRSETQFEPHAPPPYRSEPYFETPAPPPSFGHVSHVGHQSPNESYPPEHHRYGGYQQPSNSLLESHGDHSGVTHVAHHSSNQPQSSSGVYHKPDENRLPDNLAGLAGRATVKVYSKAEPNYNLTIRDGKVILAPADPSDEAQHWYKDEKYSTKVKDADGHPCFALVNKATGEAMKHSVGATHPVHLIRYVPDKLDESVLWTESKDFGDGYRTIRMVNNTRLNVDAYHGDSKSGGVRDGTTIVLWDWNKGDNQLWKIFPF,glycan array binding signal (z-score),[1],0.811
same,glycan array binding signal (z-score),[2],-1.17
same,glycan array binding signal (z-score),[3],0.502
same,glycan array binding signal (z-score),[4],-0.134
same,glycan array binding signal (z-score),[5],-0.879
same,glycan array binding signal (z-score),[6],-0.777
same,glycan array binding signal (z-score),[7],-0.597
same,glycan array binding signal (z-score),[8],0.433
same,glycan array binding signal (z-score),[9],0.386
same,glycan array binding signal (z-score),[10],-0.279
same,glycan array binding signal (z-score),[11],-0.647
same,glycan array binding signal (z-score),[12],-1.4
same,glycan array binding signal (z-score),[13],-0.709
same,glycan array binding signal (z-score),[14],0.829
same,glycan array binding signal (z-score),[15],-1.21
same,glycan array binding signal (z-score),[16],0.399
same,glycan array binding signal (z-score),[17],-0.472
same,glycan array binding signal (z-score),[18],1.05
same,glycan array binding signal (z-score),[19],-0.634
same,glycan array binding signal (z-score),[20],-0.511
same,glycan array binding signal (z-score),[21],0.12
same,glycan array binding signal (z-score),[22],0.364
same,glycan array binding signal (z-score),[23],-0.914
same,glycan array binding signal (z-score),[24],0.658
same,glycan array binding signal (z-score),[25],0.429
same,glycan array binding signal (z-score),[26],-0.553
same,glycan array binding signal (z-score),Neu5Ac(a2-6)GalNAc,-0.607
same,glycan array binding signal (z-score),[27],0.004
same,glycan array binding signal (z-score),[28],-0.482
same,glycan array binding signal (z-score),[29],1.18
same,glycan array binding signal (z-score),[30],0.178

# Exported bar-delimited: entries from further up
binder | measurement | setting | value
ArathEULS3 TAP (Arabidopsis thaliana) (protein) IDENLYFQGGSMDEKTTGWRGGHVVEGLAGELEQLRARLEHHPQGQREPGGGGSLEITSLYKKAGFMEHHHQHHRHHQRDDGEDDRQSFGVPPPHVDAPPQPHGLYQSQPHFDPYAPTPQAPAPYRSETQFEPHAPPPYRSEPYFETPAPPPSFGHVSHVGHQSPNESYPPEHHRYGGYQQPSNSLLESHGDHSGVTHVAHHSSNQPQSSSGVYHKPDENRLPDNLAGLAGRATVKVYSKAEPNYNLTIRDGKVILAPADPSDEAQHWYKDEKYSTKVKDADGHPCFALVNKATGEAMKHSVGATHPVHLIRYVPDKLDESVLWTESKDFGDGYRTIRMVNNTRLNVDAYHGDSKSGGVRDGTTIVLWDWNKGDNQLWKIFPF | glycan array binding signal (z-score) | [19] | -0.634
same | glycan array binding signal (z-score) | [20] | -0.511
